Test results reported in article PMC8482365.
No constants are given. Whether binding was seen depends on the method and setting. Binding seen in cells or lysates may run through a third protein.

Chains of the proteins cited; added tags and fusions are not shown.
UniProt P04406: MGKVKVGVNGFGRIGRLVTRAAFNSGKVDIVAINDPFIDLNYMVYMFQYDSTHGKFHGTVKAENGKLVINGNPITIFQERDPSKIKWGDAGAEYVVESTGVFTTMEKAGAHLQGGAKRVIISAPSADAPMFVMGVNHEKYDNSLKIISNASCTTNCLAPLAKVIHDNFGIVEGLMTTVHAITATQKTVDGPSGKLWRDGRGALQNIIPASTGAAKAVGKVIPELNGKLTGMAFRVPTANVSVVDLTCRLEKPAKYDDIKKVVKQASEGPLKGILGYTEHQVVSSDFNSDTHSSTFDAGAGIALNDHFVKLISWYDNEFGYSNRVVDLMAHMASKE

Molecular target: GAPDH from the membrane fraction of THP-1 phagocytes (human (endogenous in THP-1)) (UniProt P04406)
Assay: co-IP; THP-1 membrane fraction alone; GAPDH immunoprecipitated with monoclonal mouse anti-GAPDH on anti-mouse-IgG Magnabeads; blot probed with anti-human CD14

binding: no binding
B1: CD14 from the membrane fraction of THP-1 phagocytes (receptor, UniProt P08571 20-345)
chain: TTPEPCELDDEDFRCVCNFSEPQPDWSEAFQCVSAVEVEIHAGGLNLEPFLKRVDADADPRQYADTVKALRVRRLTVGAAQVPAQLLVGALRVLAYSRLKELTLEDLKITGTMPPLPLEATGLALSSLRLRNVSWATGRSWLAELQQWLKPGLKVLSIAQAHSPAFSCEQVRAFPALTSLDLSDNPGLGERGLMAALCPHKFPAIQNLALRNTGMETPTGVCAALAAAGVQPHSLDLSHNSLRATVNPSAPRCMWSSALNSLNLSFAGLEQVPKGLPAKLRVLDLSCNRLNRAPQPDELPEVDNLTLDGNPFLVPGTALPHEGSMN
